Measured values taken from patent US12503439B2, “Heteroaryl compounds for the treatment of pain” (VERTEX PHARMACEUTICALS INCORPORATED, priority 2022, dated 2025).
Some of these results come from one statement about several compounds together.

Protein sequences, listed by entry. Tags and fused reporters are not part of them. Residues count along the entry.
UniProt Q9Y5Y9, 126-1722 limits assumed: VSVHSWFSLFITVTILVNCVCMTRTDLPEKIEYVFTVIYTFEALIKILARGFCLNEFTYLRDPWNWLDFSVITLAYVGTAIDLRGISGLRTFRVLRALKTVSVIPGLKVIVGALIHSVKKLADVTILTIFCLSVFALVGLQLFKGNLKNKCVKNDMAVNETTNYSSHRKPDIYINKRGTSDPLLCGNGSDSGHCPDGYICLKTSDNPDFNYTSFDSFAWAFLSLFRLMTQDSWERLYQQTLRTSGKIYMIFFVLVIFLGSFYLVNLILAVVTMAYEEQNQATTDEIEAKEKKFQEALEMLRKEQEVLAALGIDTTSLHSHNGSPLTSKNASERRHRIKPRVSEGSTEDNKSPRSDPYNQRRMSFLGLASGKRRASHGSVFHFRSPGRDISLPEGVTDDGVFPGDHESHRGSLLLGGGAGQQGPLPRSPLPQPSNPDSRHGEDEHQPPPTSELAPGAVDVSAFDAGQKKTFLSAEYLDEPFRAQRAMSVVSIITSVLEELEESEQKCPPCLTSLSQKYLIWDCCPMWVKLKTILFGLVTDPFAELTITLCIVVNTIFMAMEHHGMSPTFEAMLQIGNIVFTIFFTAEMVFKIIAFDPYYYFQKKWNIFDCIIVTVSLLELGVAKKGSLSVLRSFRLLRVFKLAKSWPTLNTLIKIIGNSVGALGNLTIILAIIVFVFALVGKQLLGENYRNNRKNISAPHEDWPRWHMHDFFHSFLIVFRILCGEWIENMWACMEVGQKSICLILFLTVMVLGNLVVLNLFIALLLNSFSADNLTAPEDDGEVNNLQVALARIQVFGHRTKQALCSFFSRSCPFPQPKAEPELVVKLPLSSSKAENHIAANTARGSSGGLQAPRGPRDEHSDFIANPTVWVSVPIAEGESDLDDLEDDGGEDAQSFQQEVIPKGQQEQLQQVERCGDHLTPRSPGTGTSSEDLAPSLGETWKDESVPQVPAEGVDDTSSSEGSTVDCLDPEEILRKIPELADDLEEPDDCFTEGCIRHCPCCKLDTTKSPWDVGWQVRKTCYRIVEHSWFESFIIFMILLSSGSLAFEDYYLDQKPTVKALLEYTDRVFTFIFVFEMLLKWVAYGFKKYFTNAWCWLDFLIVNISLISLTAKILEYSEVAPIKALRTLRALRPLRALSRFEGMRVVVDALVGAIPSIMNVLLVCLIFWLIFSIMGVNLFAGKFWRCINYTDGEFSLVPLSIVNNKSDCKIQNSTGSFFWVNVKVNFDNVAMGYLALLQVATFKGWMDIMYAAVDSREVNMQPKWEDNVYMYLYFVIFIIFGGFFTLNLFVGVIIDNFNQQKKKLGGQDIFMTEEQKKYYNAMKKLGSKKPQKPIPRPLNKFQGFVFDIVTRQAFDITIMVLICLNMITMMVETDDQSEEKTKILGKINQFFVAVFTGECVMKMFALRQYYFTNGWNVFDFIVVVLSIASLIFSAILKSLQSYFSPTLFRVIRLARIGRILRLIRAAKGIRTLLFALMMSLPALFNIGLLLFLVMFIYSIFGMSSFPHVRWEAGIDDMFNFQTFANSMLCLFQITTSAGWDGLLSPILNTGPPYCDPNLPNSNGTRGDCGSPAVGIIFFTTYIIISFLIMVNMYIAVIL

Target: truncated form of human NaV 1.8 with full channel activity (expressed in HEK cells) (Homo sapiens, UniProt Q9Y5Y9)
Test: E-VIPR assay detecting and measuring NaV inhibition properties (electrical stimulation, membrane potential FRET dyes)
Format: cell-based
Settings: HEK cells expressing truncated human NaV 1.8, KIR2.1 BacMam; 11-point dose response; 30 min compound incubation; stimulation 10 Hz for 10 s; read-out: measured IC50 value in the E-VIPR Assay

In the case of CNC(=O)c1nccc2[nH]c(-c3c(Oc4ccc(F)c(F)c4C)ncc(C(F)(F)F)c3C)cc(=O)c12 [Compound 260, 2-[2-(3,4-difluoro-2-methyl-phenoxy)-4-methyl-5-(trifluoromethyl)-3-pyridyl]-N-methyl-4-oxo-1H-1,6-naphthyridine-5-carboxamide], the IC50 is reported as under 0.5 µM.
Cc1cc(-c2[nH]c3ccc(F)cc3c(=O)c2C)c(N2CCCC(F)(F)CC2)nc1C(F)(F)F [Compound 77, 2-[2-(4,4-difluoroazepan-1-yl)-5-methyl-6-(trifluoromethyl)-3-pyridyl]-6-fluoro-3-methyl-1H-quinolin-4-one] showed an IC50 of under 0.5 µM.
Compound Cc1c(Oc2ncc(C(F)(F)F)c(C)c2-c2cc(=O)c3c(C(=O)N[C@H]4CCCC[C@H]4O)nccc3[nH]2)ccc(F)c1F [Compound 270, 2-[2-(3,4-difluoro-2-methyl-phenoxy)-4-methyl-5-(trifluoromethyl)-3-pyridyl]-N-[(1S,2R)-2-hydroxycyclohexyl]-4-oxo-1H-1,6-naphthyridine-5-carboxamide] has an IC50 of under 0.5 µM.
NC(=O)c1nccc2[nH]c(-c3cc4cc(F)ccc4nc3N3CCCC(F)(F)CC3)cc(=O)c12 [Compound 98, 2-[2-(4,4-difluoroazepan-1-yl)-6-fluoro-3-quinolyl]-4-oxo-1H-1,6-naphthyridine-5-carboxamide] was tested, and the IC50 was under 0.5 µM.
For Cc1cc(-c2[nH]c3cc(F)ccc3c(=O)c2C)c(N2CCCC(F)(F)CC2)nc1C(F)(F)F [Compound 79, 2-[2-(4,4-difluoroazepan-1-yl)-5-methyl-6-(trifluoromethyl)-3-pyridyl]-7-fluoro-3-methyl-1H-quinolin-4-one], the IC50 was under 0.5 µM.
COCn1ccnc1-c1nccc2[nH]c(-c3c(Oc4ccc(F)c(F)c4C)ncc(C(F)(F)F)c3C)cc(=O)c12 [Compound 248, 2-[2-(3,4-difluoro-2-methyl-phenoxy)-4-methyl-5-(trifluoromethyl)-3-pyridyl]-5-[1-(methoxymethyl)imidazol-2-yl]-1H-1,6-naphthyridin-4-one] showed an IC50 of under 0.5 µM.
For NC(=O)c1nccc2[nH]c(-c3cc4ccccc4nc3C3CCC(F)(F)CC3)c(Br)c(=O)c12 [Compound 317, 3-bromo-2-[2-(4,4-difluorocyclohexyl)-3-quinolyl]-4-oxo-1H-1,6-naphthyridine-5-carboxamide], the IC50 was under 0.5 µM.
Work on COc1ccc2[nH]c(-c3cc(C)c(C(F)(F)F)nc3N3CCCC(F)(F)CC3)cc(=O)c2c1 [Compound 78, 2-[2-(4,4-difluoroazepan-1-yl)-5-methyl-6-(trifluoromethyl)-3-pyridyl]-6-methoxy-1H-quinolin-4-one] yielded an IC50 of under 0.5 µM.
Work on COc1c(-c2c(Cl)c(C(C)(C)C)nn2C2CCC(F)(F)CC2)[nH]c2ccnc(C(N)=O)c2c1=O [Compound 372, 2-[5-tert-butyl-4-chloro-2-(4,4-difluorocyclohexyl)pyrazol-3-yl]-3-methoxy-4-oxo-1H-1,6-naphthyridine-5-carboxamide] yielded an IC50 of under 0.5 µM.
For Cc1nc(N2CCCC(F)(F)CC2)c(-c2cc(=O)c3c(C(N)=O)nccc3[nH]2)c(C)c1Cl [Compound 96, 2-[5-chloro-2-(4,4-difluoroazepan-1-yl)-4,6-dimethyl-3-pyridyl]-4-oxo-1H-1,6-naphthyridine-5-carboxamide], the IC50 was under 0.5 µM.
Work on Cc1c(Oc2ncc(C(F)(F)F)c(C)c2-c2cc(=O)c3c(C(=O)NC[C@@H]4CCCC[C@@H]4O)nccc3[nH]2)ccc(F)c1F [Compound 267, 2-[2-(3,4-difluoro-2-methyl-phenoxy)-4-methyl-5-(trifluoromethyl)-3-pyridyl]-N-[[(1S,2S)-2-hydroxycyclohexyl]methyl]-4-oxo-1H-1,6-naphthyridine-5-carboxamide] yielded an IC50 of under 0.5 µM.
For COc1ccc2[nH]c(-c3cc4ccccc4nc3Oc3ccc(F)c(F)c3C)cc(=O)c2c1 [Compound 21, 2-[2-(3,4-difluoro-2-methyl-phenoxy)-3-quinolyl]-6-methoxy-1H-quinolin-4-one], the IC50 was under 0.5 µM.
With C=C(C)c1c(-c2c(C)cc(C(C)(C)C)cc2Oc2ccc(F)cc2OC)[nH]c2ccccc2c1=O [Compound 330, 2-[4-tert-butyl-2-(4-fluoro-2-methoxy-phenoxy)-6-methyl-phenyl]-3-isopropenyl-1H-quinolin-4-one] the IC50 was under 0.5 µM.
Work on Cc1c(Oc2ncc(C(F)(F)F)c(C)c2-c2cc(=O)c3c([nH]2)CCCS3(=N)=O)ccc(F)c1F (stereo not shown) [Compound 145, 6-[2-(3,4-difluoro-2-methyl-phenoxy)-4-methyl-5-(trifluoromethyl)-3-pyridyl]-1-imino-1-oxo-2,3,4,5-tetrahydrothiopyrano[3,2-b]pyridin-8-one] yielded an IC50 of under 0.5 µM.
COc1cc(F)ccc1Oc1cc(C(C)(C)C)cc(C)c1-c1cc(=O)c2c(C(N)=O)nccc2[nH]1 [Compound 343, 2-[4-tert-butyl-2-(4-fluoro-2-methoxy-phenoxy)-6-methyl-phenyl]-4-oxo-1H-1,6-naphthyridine-5-carboxamide] was tested, and the IC50 was under 0.5 µM.
In the case of Cc1c(Oc2ncc(C(F)(F)F)cc2-c2cc(=O)c3c(C(N)=O)nccc3[nH]2)ccc(F)c1F [Compound 53, 2-[2-(3,4-difluoro-2-methyl-phenoxy)-5-(trifluoromethyl)-3-pyridyl]-4-oxo-1H-1,6-naphthyridine-5-carboxamide], the IC50 is reported as under 0.5 µM.
NC(=O)c1nccc2[nH]c(-c3cc(C4(C(F)(F)F)CC4)nn3C3CCC(F)(F)CC3)cc(=O)c12 [Compound 352, 2-[2-(4,4-difluorocyclohexyl)-5-[1-(trifluoromethyl)cyclopropyl]pyrazol-3-yl]-4-oxo-1H-1,6-naphthyridine-5-carboxamide] gave an IC50 of under 0.5 µM.
Work on COc1cc(F)ccc1Oc1cc(C(C)(C)C)cc(C)c1-c1cc(=O)c2c(C(=O)O)nccc2[nH]1 [Compound 342, 2-[4-tert-butyl-2-(4-fluoro-2-methoxy-phenoxy)-6-methyl-phenyl]-4-oxo-1H-1,6-naphthyridine-5-carboxylic acid] yielded an IC50 of under 0.5 µM.
Cc1c(C(F)(F)F)cnc(Oc2ccc(F)cc2CO)c1-c1cc(=O)c2c(C(N)=O)nccc2[nH]1 [Compound 345, 2-[2-[4-fluoro-2-(hydroxymethyl)phenoxy]-4-methyl-5-(trifluoromethyl)-3-pyridyl]-4-oxo-1H-1,6-naphthyridine-5-carboxamide] was tested, and the IC50 was under 0.5 µM.
Cc1c(Oc2ncc(C(F)(F)F)c(C)c2-c2cc(=O)c3c(-c4nnnn4C)nccc3[nH]2)ccc(F)c1F [Compound 222, 2-[2-(3,4-difluoro-2-methyl-phenoxy)-4-methyl-5-(trifluoromethyl)-3-pyridyl]-5-(1-methyltetrazol-5-yl)-1H-1,6-naphthyridin-4-one] gave an IC50 of under 0.5 µM.
For Cc1nc(N2CCCC(F)(F)CC2)c(-c2cc(=O)c3c(C#N)nccc3[nH]2)c(C)c1Cl [Compound 86, 2-[5-chloro-2-(4,4-difluoroazepan-1-yl)-4,6-dimethyl-3-pyridyl]-4-oxo-1H-1,6-naphthyridine-5-carbonitrile], the IC50 was under 0.5 µM.
For Cc1cc(-c2cc(=O)c3c[n+]([O-])ccc3[nH]2)c(N2CCCC(F)(F)CC2)nc1C(F)(F)F [Compound 68, 2-[2-(4,4-difluoroazepan-1-yl)-5-methyl-6-(trifluoromethyl)-3-pyridyl]-6-oxido-1H-1,6-naphthyridin-6-ium-4-one], the IC50 was under 0.5 µM.
COc1c(Oc2cc(C(F)(F)F)c(F)cc2-c2cc(=O)c3c(C(N)=O)nc(C)cc3[nH]2)ccc(F)c1F [Compound 162, 2-[2-(3,4-difluoro-2-methoxy-phenoxy)-5-fluoro-4-(trifluoromethyl)phenyl]-7-methyl-4-oxo-1H-1,6-naphthyridine-5-carboxamide] was tested, and the IC50 was under 0.5 µM.
With Cc1c(Oc2ncc(C(F)(F)F)c(C)c2-c2cc(=O)c3c(N(C)C)nccc3[nH]2)ccc(F)c1F [Compound 168, 2-[2-(3,4-difluoro-2-methyl-phenoxy)-4-methyl-5-(trifluoromethyl)-3-pyridyl]-5-(dimethylamino)-1H-1,6-naphthyridin-4-one] the IC50 was under 0.5 µM.
With CCC(CC)N1CCN(c2nccc3[nH]c(-c4c(Oc5ccc(F)c(F)c5C)ncc(C(F)(F)F)c4C)cc(=O)c23)CC1 [Compound 183, 2-[2-(3,4-difluoro-2-methyl-phenoxy)-4-methyl-5-(trifluoromethyl)-3-pyridyl]-5-[4-(1-ethylpropyl)piperazin-1-yl]-1H-1,6-naphthyridin-4-one] the IC50 was under 0.5 µM.
For NC(=O)c1nccc2[nH]c(-c3cnc(C4CC(F)(F)C4)nc3C3CCC(F)(F)CC3)cc(=O)c12 [Compound 107, 2-[2-(3,3-difluorocyclobutyl)-4-(4,4-difluorocyclohexyl)pyrimidin-5-yl]-4-oxo-1H-1,6-naphthyridine-5-carboxamide], the IC50 was under 0.5 µM.
Cc1ccc(-c2cc(=O)c3cnccc3[nH]2)c(OCc2ccccc2)c1 [Compound 8, 2-(2-benzyloxy-4-methyl-phenyl)-1H-1,6-naphthyridin-4-one] gave an IC50 of under 0.5 µM.
COC(=O)c1nccc2[nH]c(-c3c(C)cc(C(C)(C)C)cc3Oc3ccc(F)cc3OC)cc(=O)c12 [Compound 340, Methyl 2-[4-tert-butyl-2-(4-fluoro-2-methoxy-phenoxy)-6-methyl-phenyl]-4-oxo-1H-1,6-naphthyridine-5-carboxylate] gave an IC50 of under 0.5 µM.
In the case of Cc1c(Oc2ncc(C(F)(F)F)c(C)c2-c2cc(=O)c3c(N[C@H]4CCC[C@H]4O)nccc3[nH]2)ccc(F)c1F [Compound 180, 2-[2-(3,4-difluoro-2-methyl-phenoxy)-4-methyl-5-(trifluoromethyl)-3-pyridyl]-5-[[(1S,2R)-2-hydroxycyclopentyl]amino]-1H-1,6-naphthyridin-4-one], the IC50 is reported as under 0.5 µM.
N#Cc1nccc2[nH]c(-c3cnc(C4CC(F)(F)C4)cc3C3CCC(F)(F)CC3)cc(=O)c12 [Compound 117, 2-[6-(3,3-difluorocyclobutyl)-4-(4,4-difluorocyclohexyl)-3-pyridyl]-4-oxo-1H-1,6-naphthyridine-5-carbonitrile] showed an IC50 of under 0.5 µM.
With COc1cc(F)ccc1Oc1cc(C(C)(C)C)cc(C)c1-c1[nH]c2ccccc2c(=O)c1C (single isomer, unassigned) [Compound 333, 2-[4-tert-butyl-2-(4-fluoro-2-methoxy-phenoxy)-6-methyl-phenyl]-3-methyl-1H-quinolin-4-one] the IC50 was under 0.5 µM.
